According to publication PMC9943661:
Results are given in words; binding and its absence hold for the method and conditions named. For some of these results: In cells and extracts the contact can be indirect. Some binding calls cover weakened binding; strength is not graded here.

Chains of the proteins cited; added tags and fusions are not shown.
UniProt P84022: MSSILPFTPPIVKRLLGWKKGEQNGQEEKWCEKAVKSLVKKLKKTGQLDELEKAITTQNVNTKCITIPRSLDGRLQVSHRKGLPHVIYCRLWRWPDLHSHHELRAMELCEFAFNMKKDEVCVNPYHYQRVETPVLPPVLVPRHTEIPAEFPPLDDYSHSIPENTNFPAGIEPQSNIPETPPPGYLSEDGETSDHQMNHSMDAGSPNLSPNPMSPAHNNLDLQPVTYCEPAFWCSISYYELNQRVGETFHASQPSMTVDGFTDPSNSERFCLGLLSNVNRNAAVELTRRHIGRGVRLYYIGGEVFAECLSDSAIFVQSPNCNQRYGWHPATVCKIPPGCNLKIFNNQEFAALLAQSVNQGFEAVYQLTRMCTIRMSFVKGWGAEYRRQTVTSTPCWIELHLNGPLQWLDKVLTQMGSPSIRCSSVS
UniProt Q15796: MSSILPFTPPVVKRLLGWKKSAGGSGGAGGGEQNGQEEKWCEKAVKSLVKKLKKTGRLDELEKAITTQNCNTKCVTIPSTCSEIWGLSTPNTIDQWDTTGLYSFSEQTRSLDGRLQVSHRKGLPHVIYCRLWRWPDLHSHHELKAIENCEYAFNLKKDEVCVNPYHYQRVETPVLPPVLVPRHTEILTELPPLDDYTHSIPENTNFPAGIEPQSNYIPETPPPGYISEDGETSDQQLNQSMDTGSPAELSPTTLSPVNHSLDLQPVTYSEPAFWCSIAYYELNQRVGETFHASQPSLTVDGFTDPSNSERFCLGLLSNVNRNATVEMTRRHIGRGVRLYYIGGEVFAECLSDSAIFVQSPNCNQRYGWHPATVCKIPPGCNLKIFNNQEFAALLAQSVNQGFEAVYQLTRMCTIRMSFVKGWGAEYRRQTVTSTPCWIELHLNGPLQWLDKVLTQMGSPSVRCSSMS
UniProt O15527: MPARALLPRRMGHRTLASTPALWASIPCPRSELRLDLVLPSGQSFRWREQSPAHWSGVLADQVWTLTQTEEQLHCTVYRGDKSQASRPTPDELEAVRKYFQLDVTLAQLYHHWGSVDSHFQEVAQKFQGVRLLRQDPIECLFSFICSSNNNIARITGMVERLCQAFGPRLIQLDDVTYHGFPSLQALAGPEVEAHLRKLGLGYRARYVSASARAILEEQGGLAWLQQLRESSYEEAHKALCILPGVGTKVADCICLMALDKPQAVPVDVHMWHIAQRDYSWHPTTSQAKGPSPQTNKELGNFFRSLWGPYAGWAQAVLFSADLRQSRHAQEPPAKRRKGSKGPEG

Legend:
[1] = target: His-SMAD3 (UniProt P84022); experiment: pull-down; His-tagged SMADs (20 nM) held on His-tag Dynabeads; increasing concentrations of GST-OGG1 in pull-down buffer (3.25 mM sodium phosphate, 70 mM NaCl, 0.01% Tween-20), 10 min at RT; OGG1 detected by western blot; both purified
[2] = target: His-SMAD2 (UniProt Q15796); experiment: as above
[3] = target: Flag-OGG1 (8-oxoguanine DNA glycosylase 1, ectopically expressed) (UniProt O15527); experiment: proximity ligation; Duolink in situ PLA in Flag-OGG1 expressing hSAECs, mock or TGFβ1 treated, with or without TH5487 pretreatment; anti-Flag (mouse) and anti-pSMAD3 (rabbit) primary antibodies; nuclear speckles counted
[4] = target: Flag-OGG1 (8-oxoguanine DNA glycosylase 1, ectopically expressed) (UniProt O15527); experiment: co-IP; nuclear lysate of Flag-OGG1 expressing hSAECs (mock or TGFβ1 treated), Benzonase digested; IP with anti-Flag and blot with anti-pSMAD3, and IP with anti-pSMAD3 and blot with anti-Flag; 4°C overnight

## GST-OGG1 (from UniProt O15527 1-345) (enzyme)
[1]
  binding: binds
[2]
  binding: binds

## phosphorylated SMAD3 (pSMAD3) (from UniProt P84022 1-425)
[3]
  binding: binds
[4]
  binding: binds
